Data from patent US20120315277A1, “Compositions and Methods for the Therapy and Diagnosis of Influenza” (priority 2011, published 2012).
Positions count from the first letter of the chain named. No constants are given. Whether binding was seen depends on the method and setting. Some binding calls cover weakened binding; strength is not graded here.

Amino acid sequences for entries named in this document (tags omitted).
UniProt P06821: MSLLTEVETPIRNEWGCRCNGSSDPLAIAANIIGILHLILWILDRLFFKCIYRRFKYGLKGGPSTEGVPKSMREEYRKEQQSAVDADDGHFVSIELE

Legend:
[1] = target: M2 protein of influenza A/Puerto Rico/8/34 (H1N1) on cells (influenza A virus A/Puerto Rico/8/34 (H1N1)) (UniProt P06821); experiment: FMAT on PR8-infected MDCK cells
[2] = target: M2 protein of influenza A/Puerto Rico/8/34 (H1N1) on cells (influenza A virus A/Puerto Rico/8/34 (H1N1)) (UniProt P06821); experiment: FACS, transfected 293 cells, 1 µg/mL
[3] = target: M2 protein of influenza A/Puerto Rico/8/34 (H1N1) on cells (influenza A virus A/Puerto Rico/8/34 (H1N1)) (UniProt P06821); experiment: FACS, MDCK cells infected with A/Puerto Rico/8/34
[4] = target: M2 protein on influenza A/Puerto Rico/8/34 (H1N1) virus particles (influenza A virus A/Puerto Rico/8/34 (H1N1)) (UniProt P06821); experiment: ELISA on PR8 virus, crude supernatants
[5] = target: M2 protein on influenza A/Puerto Rico/8/34 (H1N1) virus particles (influenza A virus A/Puerto Rico/8/34 (H1N1)) (UniProt P06821); experiment: ELISA on A/PR/8 virus, normalised to 8i10 at 10 µg/ml [D00002 FIG. 2B]
[6] = target: M2 protein on influenza A/Puerto Rico/8/34 (H1N1) virus particles (influenza A virus A/Puerto Rico/8/34 (H1N1)) (UniProt P06821); experiment: ELISA on purified A/Puerto Rico/8/34 virus
[7] = target: M2 protein on influenza A/Puerto Rico/8/34 (H1N1) virus particles (influenza A virus A/Puerto Rico/8/34 (H1N1)) (UniProt P06821); experiment: ELISA on purified virus (FIG. 14a)
[8] = target: M2 protein of influenza A/Puerto Rico/8/34 (H1N1) on cells (influenza A virus A/Puerto Rico/8/34 (H1N1)) (UniProt P06821); experiment: FACS, transfected HEK293, 1 µg/ml [D00006 FIG. 3C-1]
[9] = target: M2 protein of influenza A/Puerto Rico/8/34 (H1N1) on cells (influenza A virus A/Puerto Rico/8/34 (H1N1)) (UniProt P06821); experiment: FACS on MDCK cells infected with A/Puerto Rico/8/34
[10] = target: M2 protein of influenza A/Puerto Rico/8/34 (H1N1) on cells (influenza A virus A/Puerto Rico/8/34 (H1N1)) (UniProt P06821); experiment: FMAT images, MDCK cells infected with A/PR/8, crude supernatant
[11] = target: M2 protein of influenza A/Puerto Rico/8/34 (H1N1) on cells (influenza A virus A/Puerto Rico/8/34 (H1N1)) (UniProt P06821); experiment: FACS on infected MDCK cells
[12] = target: M2 protein on influenza A/Puerto Rico/8/34 (H1N1) virus particles (influenza A virus A/Puerto Rico/8/34 (H1N1)) (UniProt P06821); experiment: ELISA on influenza virus, crude supernatants
[13] = target: M2 protein on influenza A/Puerto Rico/8/34 (H1N1) virus particles (influenza A virus A/Puerto Rico/8/34 (H1N1)) (UniProt P06821); experiment: ELISA on PR8 virus, crude supernatant
[14] = target: M2 protein on influenza A/Puerto Rico/8/34 (H1N1) virus particles (influenza A virus A/Puerto Rico/8/34 (H1N1)) (UniProt P06821); experiment: ELISA, purified A/Puerto Rico/8/34 virus coated at 10 µg/ml
[15] = target: M2 protein of influenza A/Puerto Rico/8/34 (H1N1) on cells (influenza A virus A/Puerto Rico/8/34 (H1N1)) (UniProt P06821); experiment: FACS on transfected 293 cells and on infected MDCK cells
[16] = target: M2 protein of influenza A/Puerto Rico/8/34 (H1N1) on cells (influenza A virus A/Puerto Rico/8/34 (H1N1)) (UniProt P06821); experiment: FMAT on MDCK cells infected with A/PR/8/32 (so in the source), crude supernatant

Measured: binding

B1: 8I10 (antibody, V domains shown)
VH: QVQLQESGPGLVKPSETLSLTCTVSGSSISNYYWSWIRQSPGKGLEWIGFIYYGGNTKYNPSLKSRVTISQDTSKSQVSLTMSSVTAAESAVYFCARASCSGGYCILDYWGQGTLVTVS
VL: DIQMTQSPSSLSASVGDRVTITCRASQNIYKYLNWYQQRPGKAPKGLISAASGLQSGVPSRFSGSGSGTDFTLTITSLQPEDFATYYCQQSYSPPLTFGGGTRVEIK
binds: all assays above

B2: 21B15 (antibody, V domains shown)
VH: B1 VH
VL: B1 VL with M4V, E105D
binds: [1] | [4] | [10] | [12] | [13] | [16]
